Measurements as given in article PMC12445521.

Legend:
[1] = target: GFP-tagged PEDV S protein (in IPEC-J2) (porcine epidemic diarrhea virus (PEDV), strain AH2012/12)
[2] = target: GFP-tagged PEDV E protein (in IPEC-J2) (porcine epidemic diarrhea virus (PEDV), strain AH2012/12)
[3] = target: GFP-tagged PEDV N protein (in IPEC-J2) (porcine epidemic diarrhea virus (PEDV), strain AH2012/12)

Measured: binding

B1: endogenous porcine AurA (enzyme, UniProt A5GFW1 1-402)
chain: MDKCKENCISGLKTTVPPGDGPKRVPVTQHFPAQHLPSANSGQAQRVLCPSNSSQRLPSHTQKLVSSHKPVQNLKQKQSQATSGPRPVSRPLSNTQQSEQPQPAAPGNNPEKEAASKQKNEESKKRQWALEDFEIGRPLGKGKFGNVYLAREKQSKFILALKVLFKTQLEKAGVEHQLRREVEIQSHLRHPNILRLYGYFHDATRVYLILEYAPLGAVYRELQKLSKFDEQRTATYITELANALSYCHSKRVIHRDIKPENLLLGSAGELKIADFGWSVHAPSSRRTTLCGTLDYLPPEMIEGRMHDEKVDLWSLGVLCYEFLVGKPPFEANTYQETYKRISRVEFTFPDFVPEGARDLISRLLKHNPSHRPTLKEVLEHPWITANSKPASSHKKESTSKQP
no binding: all assays above

Results are given in words; binding and its absence hold for the method and conditions named. Binding seen in cells or lysates may run through a third protein.
